Laboratory results taken from PubChem BioAssay AID1508600 (Functional Genomics Laboratory (NCATS/FGL), 2020).
About 3,700 (7%) of roughly 53,000 sequences were called active.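 The calls were made as follows: active = gene knockdowns whose robust z-score for IL-1 alpha signal is at least 2 or at most -2, so actives lie on both sides; inactive = the rest.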 The list shows a part of the results.

Assay: Components of the Cytosolic LPS Sensing Pathway: Gene Identification via Genome-wide siRNA Screen;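 also: robust z of the log signal after scaling to non-targeting control siRNA wells of the plate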
Conditions: RAW264.7 macrophages, IL-1a HTRF, actives lie on both sides, screened at 100 nM (by protocol), cells primed 5 h with Pam3CSK4 first
Procedure, shortened: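 RAW264.7; siRNA 100 nM final, RNAiMAX, 48h 37 degrees C; Pam3CSK4 5 h; LipidA + TransIT-TKO 24 h; IL-1a HTRF; CellTiter-Glo viability; robust z vs negative-control median.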

Sequence | z-score
GGCUUGUGCAAAUCCCACATT against Ppp1r14a | inactive: -0.991
GGGAUCUUAAUGAAGAAGATT against Cd7 | inactive: -0.335
CCAGAGUAAUUCAUCAUACTT against Agxt | inactive: 0.172
GCGACUGUUUAGCUUUUUCTT against Rilpl1 | inactive: 0.2
CGAGCAUGUGUUACAUUAUTT against Tnfaip8l1 | inactive: 0.778
GCAGGGUCAUAAUUGUUCUTT against Tpd52l1 | inactive: 0.0898
CCAUGCGUAUCCGUAUGACTT against Naa38 | inactive: 0.348
CCAACCAGUUGAGUUCCAGTT against Nefl | inactive: 1.93
GGUUCAGACUGCAUCAGGCTT against Ncan | inactive: -1.03
GGACAUCUGGUUAUGAAUGTT against B3galt6 | inactive: -0.111
GGACGAAAUAACAGGCUAATT against Clec2d | inactive: 1.83
GGAAACUGCUGAAAGGUUATT against Srbd1 | inactive: 0.611
GGGCAAGGAGACAGAAUUCTT against Fgf18 | inactive: 0.927
GGAGAUGGUCUCAUUAAGCTT against Psmd13 | inactive: -1.25
GGUUAACUUCUGUUCCUGATT against Yipf4 | inactive: 1.28
GUCUGGAUAUUUGACACUATT against Tmem60 | inactive: -0.637
GCCCUGAAUGUGAAUUUGUTT against Ass1 | inactive: 0.437
GGAAGACGAGUUCAUUGUGTT against Rassf2 | inactive: 0.3
GCUGCCGACCAUACUUUCCTT against Psme4 | inactive: 0.103
CGGAGCAUUGGGACAAUUUTT against Olfr690 | inactive: 1.1
UCUGAUCACACUGUUUGGATT against Olfr832 | inactive: 1.68
GGGAUUGAAAAGGUUAACCTT against Fam243 | inactive: -0.838

Sequence | z-score
GGAGCUGCUGAACUGUAGUTT against Leprotl1 | inactive: 0.407
GGCUUUAUGAGAGAGAUGATT against Cryga | inactive: -0.465
GGGACUGAACCCUCUCAAATT against Lsp1 | inactive: 0.915
GGCUAGAUGACAACCGCAUTT against Flrt1 | inactive: 1.13
GCAAGAAACAUUAGCGAAUTT against Dapk1 | inactive: 1.01
GGAUUCUUGAGCAGAUAGCTT against Gbp3 | inactive: 0.187
GGGCUUUAAUACUGAGAAGTT against Arl4d | inactive: 1.21
GGACGGCAAGUCUUAUGUGTT against Rp1 | inactive: -0.0566
GGUUGCUCAAGAAACAGACTT against Rad50 | inactive: -1.18
GGAAGAAAGAGUGUAUCAATT against Idi2 | inactive: 0.487
GGAAACUGGUAACUGAUGATT against Acp1 | inactive: -0.822
GGAAGGACACACAUCCACUTT against Trpt1 | inactive: -0.584
CGAGAGUCAGCUAUUAAUGTT against Stoml2 | inactive: -1.16
CCCUCAUAACUAAUGCUGUTT against Pip5kl1 | inactive: -0.276
GGUCUGAUCAAGGCUGCCATT against Trpm1 | inactive: -0.588
GAAGCUUUGUGAUGGAUUATT against Ccl4 | inactive: 1.41
GCUGCACUAUAGCAUCUGUTT against Fam135a | inactive: 0.168
GGAGAUUCAGAAGCACAACTT against Fads2 | inactive: 1.57
GGGACAUUGCAUUGUGAUCTT against Hspa1a | inactive: 0.757
GGCAAAAAUACGUUCUAUATT against Slc35a3 | inactive: 0.873
CCAAACACAUUUUAUUCCATT against Slamf7 | inactive: 0.74
GGCCAUAAUCAAUCCUACCTT against Macroh2a1 | inactive: 0.29

Some values from the list.
z-score with GGUUAACUUCUGUUCCUGATT against Yipf4 is entered as inactive: 1.28
z-score with GCAAGAAACAUUAGCGAAUTT against Dapk1 is entered as inactive: 1.01
z-score with CCCUCAUAACUAAUGCUGUTT against Pip5kl1 is entered as inactive: -0.276
z-score with CCAUGCGUAUCCGUAUGACTT against Naa38 is entered as inactive: 0.348

(cont.)

Sequence | z-score
GGAAGAGAUAGCUUGAUUUTT against Xrcc6 | inactive: -1.36
GGGUUCCCUGAAAUGUUAGTT against Atic | inactive: -0.754
GGCCUUACAGAGGAAUAUCTT against Gid4 | inactive: -1.18
GCAUGGAUAGAUAAUUCAATT against Atp5a1 | inactive: 1.28
GGCAAUGUCUUCUCCAAUATT against Dedd | inactive: -0.652
GGUCCUAGUUAAUUUCACUTT against Ipmk | inactive: -0.121
CUCAAUGGGAGCCACUUUUTT against Fam169b | inactive: -1.45
GGACAUAGAGAAAACAUCUTT against 4933430I17Rik | inactive: -0.0638
GAAGCUCAACAACCAGUAUTT against Cited2 | inactive: -0.0282
GGGCUAAAGAAACAAUCCCTT against Ccr10 | inactive: 0.743
GGGUGUUUUUAAGUGUCCCTT against Zfp574 | inactive: 0.475
GCCCAGUGUAUAUGCUACUTT against Pirb | inactive: 0.403
GGUCAACCCAUUGUAUAAGTT against Socs5 | inactive: -0.263
GGAGGGUCUCUAAUCUAUGTT against Slc38a4 | inactive: 1.21
CGAGCCUAGAAAGAGUUGATT against Lrrn4 | inactive: 0.646
GGCUGUGGAUUAAAUUAUCTT against Prkd3 | inactive: -0.0472
GCGGUGAACUACCAUUACCTT against Thnsl2 | inactive: 1.49
GCCACUGUUUGAUCUGAAATT against Fhod1 | inactive: 0.943
GGAUCUGAAAGAUUAGAUUTT against Slc7a15 | inactive: -0.292
GCUUCACAUGAAGCAACCUTT against Fam149b | inactive: -0.102
GGAAACAGGUCUGUCCCAATT against Ankle1 | active: -2.22
GGAUGUUCUCAAACUACAATT against Kdm1b | inactive: 0.702

Sequence | z-score
GGUUAUUACCCAGUUCACGTT against Pramel1 | inactive: -0.668
CCGAGCGAGACAAAUGGAGTT against Ing2 | inactive: 0.308
GGCAGGUUUAACUUUAAUGTT against Cacna1e | active: 3.59
CCAAGAUGUGAAAUUCACCTT against Efnb2 | inactive: 0.414
GCAUAUGGCACCACAUUGUTT against Psg25 | inactive: 0.0646
CCUUAGAAACACUCUUAUUTT against Lrrc66 | inactive: -0.337
GGUGGAUUUUGAAACUAUUTT against Pcdhb17 | inactive: 1.11
GGGUGCCCUUUGUCAUGUATT against Rapgef3 | inactive: -1.16
GGCCAAAGGCAUCAGGCAUTT against Gsto2 | inactive: -1.7
GGUGGUACUUACUCAAAAUTT against Fgg | inactive: 1.05
GGGAUACCAUCUUUAUGGCTT against Vwa3b | inactive: -0.041
GGAGGUAUUGGUUUCAUCCTT against Impdh2 | inactive: 1.09
GCCACCUGGUUAAAUUAAATT against Ceacam9 | inactive: 0.658
GCUAGUUACAAGCAAGCAGTT against Zfp763 | inactive: -0.636
GGAAAACCAUACCAAAAUGTT against Hmox2 | inactive: 0.248
CGAGAACAACACUUGGAAUTT against Ubxn4 | inactive: -0.665
GGCAUGCUGAUGGAGUUUUTT against Vip | inactive: 0.953
GCCACCAAAUUUAUGGUAUTT against Rnf185 | inactive: -0.58
CCAAUCUACUCCUAAGAACTT against Vmn1r84 | inactive: -0.142
GCCGACUUUAAUGACUGCUTT against Cmtm4 | inactive: 1.71
CGUACAAUAAUUUGUCUACTT against Slc9a6 | inactive: 1.4
GGAGAUGCAAAGCUACUCUTT against Epha8 | inactive: -0.604

Sequence | z-score
GGGAGGACAUCCAGACAAUTT against Fam13b | inactive: -0.305
AUAAAUAGGUAACAGAACCTT against Olfr121 | inactive: -0.786
GGAUCUAUAGAAUAGCUCUTT against Rbm39 | inactive: -1.37
GGCUUUUUCUACAUGCGCCTT against Olfr1104 | inactive: -0.236
GGCAUAAGAAAAUGGACCCTT against Fhit | active: 2.04
GGAUAGUGAAGUCAUUGAATT against Pbrm1 | inactive: 1.43
GGCCAUUCUGUCAAAUUCATT against Smpd1 | inactive: 0.545
GGGUCAUUCUGCUAUUCCUTT against Taar7d | inactive: -1.46
GCAGCAUACUAAUAAACUGTT against Acot13 | inactive: 0.134
GCUAAACUCGCUCAAUCUGTT against Cd14 | inactive: 0.537
GGUCUUCUGUCCAUUAGUGTT against Pigc | inactive: 0.14
GGUGGAUGAAAUCUACACATT against Gtpbp2 | inactive: 0.359
GGUGAAGAAUGCUACACAATT against Htr5a | inactive: 1.03
CCAAAAGGCGUAUUUUGGCTT against Anp32a | inactive: -0.193
GGAAAAUGCCAUGAAAAAGTT against Ccdc60 | inactive: -0.545
GCAAACGCAGCAGAAUAGCTT against Washc3 | inactive: 0.187
CGUCGUUAACAACACUUUGTT against Gns | inactive: 0.637
GGAAGAUAGUGUUUUCCACTT against Olfr802 | inactive: -0.342
GGUGAGGAAGUCCUGUGUCTT against Lynx1 | inactive: -0.449
